In patent publication US6455530B1, “2R,4S,S,S- and 2S,4R,S,S-hydroxyitraconazole” (Sepracor Inc., priority 1996, dated 2002):
Some entries share one result that the patent states for a list of compounds. For at least one compound, name, drawing or mass did not settle the structure.

System: Candida albicans
Assay: MIC in 96-well microtiter dish, liquid growth media
Assay type: cell-based
Conditions: Candida albicans (ATCC), incubated at 30° C. for 16 hours; diastereomeric mixtures 9 containing A and B

| Structure (SMILES) | MIC |
| --- | --- |
| C[C@H]([C@@H](C)O)n1ncn(-c2ccc(N3CCN(c4ccc(OC[C@H]5CO[C@](Cn6cncn6)(c6ccc(Cl)cc6Cl)O5)cc4)CC3)cc2)c1=O (single isomer, unassigned) [A diastereomer, (2R,4S)-4-[4-[4-[4-[[2-(2,4-Dichlorophenyl)-2-(1H-1,2,4-triazole-1-ylmethyl)-1,3-dioxolan-4-yl]methoxy]phenyl]-[-piperazinyl[phenyl]-2,4dihydro-2-[(1R*,2R*)-(2-hydroxy-1-methylpropyl)]-3H -1,2,4-triazol-3-one] | below 0.156 μg/mL |
| C[C@H]([C@@H](C)O)n1ncn(-c2ccc(N3CCN(c4ccc(OC[C@@H]5CO[C@@](Cn6cncn6)(c6ccc(Cl)cc6Cl)O5)cc4)CC3)cc2)c1=O (single isomer, unassigned) [B diastereomer, (2S,4R)-4-[4-[4-[4-[[2-(2,4-Dichlorophenyl)-2-(1H-1,2,4,-triazole-1-ylmethyl)-1,3-dioxolan-4-yl}methoxy]phenyl]-1-piperazinyl]phenyl]-2,4-dihydro-2-[(1R*,2R*)-(2-hydroxy-1-methylpropyl)-3H-1,2,4-triazol-3-one] | below 0.156 μg/mL |
